From the supplement of paper PMC8166895
Several values for one entry are separate records, joined by “and”; a condition that tells them apart may be missing. Equal entries are not always repeated. Structures can show the parent of a compound that is named as a salt. Some of the results follow. Most entries show no effect beyond the scatter of the controls.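 A single-replicate pilot screen of approved drugs and clinical or known-target compounds measured melting temperature via differential scanning fluorimetry. Top stabilizing hits raised the melting point by 2 °C or more; negative shifts indicate destabilization.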

system: SARS-CoV-2 main protease (Mpro, nsp5); assay: thermal shift ΔTm of Mpro relative to plate average Tm; higher = stronger thermal stabilization of Mpro (binding); conditions: 10 µM; protein concentration 1 µM

Row | SMILES | thermal shift ΔTm of Mpro
1 | Cc1cc(C#N)cc(C)c1Oc1nc(Nc2ccc(C#N)cc2)nc(N)c1Br [Etravirine (TMC125)] | 0.629 °C
2 | Cn1cncc1[C@@](N)(c1ccc(Cl)cc1)c1ccc2c(c1)c(-c1cccc(Cl)c1)cc(=O)n2C [Tipifarnib] | -0.233 °C
3 | Cc1nnc(SCC2=C(C(=O)O)N3C(=O)[C@@H](NC(=O)Cn4cnnn4)[C@H]3SC2)s1 [Cefazolin sodium salt] | 0.317 °C
4 | O=c1[nH]c(=O)n([C@H]2C[C@H](O)[C@@H](CO)O2)cc1C(F)(F)F [Trifluridine] | 0.0771 °C
5 | CCCCCCCCNC(C)C(O)c1ccc(SC(C)C)cc1 (stereo not given) [Suloctidil] | -0.0334 °C
6 | O=C(O)c1ccc(/C=C2\SC(=S)N(Cc3cccc(C(F)(F)F)c3)C2=O)cc1 | 0.192 °C
7 | S=c1[nH]cnc2nc[nH]c12 [Mercaptopurine (6-MP)] | 0.257 °C
8 | S=c1[nH]cnc2nc[nH]c12 [6-Mercaptopurine monohydrate] | 0.0251 °C
9 | NCc1ccc(C(=O)O)cc1 | 0.287 °C
10 | Cc1cccc(-c2[nH]ncc2-c2ccc3ncccc3n2)n1 | -0.0101 °C
11 | CN(Cc1ccc(C(C)(C)C)cc1)Cc1cccc2ccccc12 [Butenafine HCl] | 0.0278 °C
12 | CN1CC[C@@H](c2c(O)cc(O)c3c(=O)cc(-c4ccccc4Cl)oc23)[C@@H]1CO | 0.0668 °C
13 | O=C(NCCCNc1nc(Nc2cccc(NC(=O)N3CCCC3)c2)ncc1I)c1cccs1 | 0.23 °C
14 | O=C(O)C[C@H](O)C[C@H](O)/C=C/c1c(C2CC2)nc2ccccc2c1-c1ccc(F)cc1 [Pitavastatin Calcium] | -0.134 °C
15 | Cc1ccc(C)c(OCCCC(C)(C)C(=O)O)c1 [Gemfibrozil] | -0.045 °C
16 | CN1CCN(Cc2ccc(NC(=O)Nc3ccc(Oc4cc(NC(=O)C5CC5)ncn4)cc3)cc2C(F)(F)F)CC1 | 0.225 °C
17 | COc1cc2c(cc1OC)[C@@H]1Cc3ccc(OC)c(OC)c3CN1CC2 [Rotundine] | -0.0496 °C
18 | Cc1nn(C)cc1-c1nc2c(N3CCN(Cc4ccc(Cl)cc4)CC3)c(Cl)cnc2[nH]1 | -0.081 °C
19 | CN1CCC(CNc2ccc3ncc(-c4cccc(OC(F)(F)F)c4)n3n2)CC1 [SGI-1776 free base] | -0.245 °C
20 | COc1ccc(CNc2nc(N(CCO)CCO)nc3c2ncn3C(C)C)cc1 | 0.117 °C
21 | NCC(=O)CCC(=O)O [5-Aminolevulinic acid HCl] | 0.0128 °C
22 | C[C@H](NC(=O)CCc1nc2ccccc2c(=O)[nH]1)c1ccccc1 | -0.121 °C

Row | SMILES | thermal shift ΔTm of Mpro
23 | COc1ccc(CN(CCN(C)C)c2ncccn2)cc1 [Thonzylamine] | 0.2 °C
24 | CN(C)CCC=C1c2ccccc2C(C)(C)c2ccccc21 [Melitracen hydrochloride] | -0.1 °C
25 | Cc1ccc(Sc2ccccc2N2CCNCC2)c(C)c1 | -0.149 °C
26 | Cc1ccc(Sc2ccccc2N2CCNCC2)c(C)c1 [Vortioxetine] | -0.0266 °C
27 | Cc1ccc(S(=O)(=O)N2CCCC2c2ccc(F)cc2)cc1 (stereo not given) | -0.06 °C
28 | O=C(O)c1ccc(-n2nc(-c3ccccc3O)nc2-c2ccccc2O)cc1 [Deferasirox] | -0.021 °C
29 | O=C1CN(CCN2CC(=O)N(CN3CCOCC3)C(=O)C2)CC(=O)N1CN1CCOCC1 [Bimolane] | -0.121 °C
30 | N#CCCCSC(=N)N [Kevetrin hydrochloride] | 0.207 °C
31 | COC(=O)CCc1ccc(OCC(O)CNC(C)C)cc1 (stereo not given) [Esmolol HCl] | -0.0583 °C
32 | COC(=O)CCc1ccc(OCC(O)CNC(C)C)cc1 (stereo not given) [Esmolol hydrochloride] | 0.0562 °C
33 | O=C(NCc1cccc(O)c1)Nc1nc(-c2ccncc2)cs1 | 0.37 °C
34 | COc1cc(C(=O)NC2CCN(C)CC2)ccc1Nc1ncc2c(n1)N(C1CCCC1)CC(F)(F)C(=O)N2C | -0.0889 °C
35 | COCCOC(=O)C1=C(C)NC(C)=C(C(=O)OC(C)C)C1c1cccc([N+](=O)[O-])c1 (stereo not given) [Nimodipine] | -0.156 °C
36 | NCCS [Cysteamine HCl] | -0.089 °C
37 | COc1c(C)c2c(c(O)c1C/C=C(\C)CCC(=O)OCCN1CCOCC1)C(=O)OC2 [Mycophenolate Mofetil] | 0.443 °C
38 | CN1C(C(=O)Nc2ccccn2)=C(O)c2ccccc2S1(=O)=O [Piroxicam] | -0.156 °C
39 | C[C@]12CCC(=O)C=C1C=C[C@@H]1[C@@H]2CC[C@@]2(C)[C@H]1CC[C@@]21CCC(=O)O1 [Canrenone] | 0.193 °C
40 | CC1(C)CC(=O)c2c(C(F)(F)F)nn(-c3ccc(C(N)=O)c(N[C@H]4CC[C@H](OC(=O)CN)CC4)c3)c2C1 | -0.000838 °C and 0.0214 °C
41 | CC1(C)[C@@H](O)CC[C@]2(C)[C@H]3C(=O)C=C4[C@@H]5C[C@@](C)(C(=O)O)CC[C@]5(C)CC[C@@]4(C)[C@]3(C)CC[C@@H]12 [Enoxolone] | -0.439 °C
42 | Cc1nc2ccc(NC(=O)CCNC(=O)CCCc3ccc(CC(C(=O)O)C(=O)O)cc3)cc2s1 | 0.145 °C
43 | Nc1ccncc1N [Amifampridine] | 0.305 °C
44 | Nc1ccccc1NC(=O)CCCCCC(=O)Nc1ccccc1 | 0.132 °C

Row | SMILES | thermal shift ΔTm of Mpro
45 | C[C@H]1COC2(CCN(c3nc(=O)c4cc(C(F)(F)F)cc([N+](=O)[O-])c4s3)CC2)O1 (racemic) [BTZ043 Racemate] | 0.169 °C
46 | CCCNC(C)C(=O)Nc1c(C)csc1C(=O)OC (stereo not given) [Articaine HCl] | 0.148 °C
47 | CNCc1ccc(-c2[nH]c3cc(F)cc4c3c2CCNC4=O)cc1 [Rucaparib] | 0.202 °C
48 | CNCc1ccc(-c2[nH]c3cc(F)cc4c3c2CCNC4=O)cc1 | 0.238 °C
49 | COc1cccc(N(C)C(=S)Oc2ccc3c(c2)CCCC3)n1 [Liranaftate] | -0.0601 °C
50 | CC(=O)C1=C(O)C=C2Oc3c(C(C)=O)c(O)c(C)c(O)c3C2(C)C1=O (single isomer, unassigned; (+)) [(+)-Usniacin] | 0.0194 °C
51 | CCNC(=O)c1noc(-c2cc(C(C)C)c(O)cc2O)c1-c1ccc(CN2CCOCC2)cc1 | -0.0895 °C
52 | Cc1cnc(-c2cnc(NCCNc3ccc(C#N)cn3)nc2-c2ccc(Cl)cc2Cl)[nH]1 | 0.145 °C and 0.308 °C
53 | O=C(O)c1cc2cccc([N+](=O)[O-])c2[nH]1 | 0.0142 °C
54 | COc1ccc(CCc2nc3cc(-c4c(C)noc4C)ccc3n2C[C@H](C)N2CCOCC2)cc1Cl | -0.067 °C
55 | CC(=O)C1(O)CCC2(O)C3(O)CC=C4CC(O)CCC4(C)C3CC(OC(=O)c3ccc(O)cc3)C12C (stereo not given) [Qingyangshengenin] | -0.0652 °C
56 | Cc1c(NC(=O)OC[C@@H]2COCCN2)cn2ncnc(Nc3ccc4c(cnn4Cc4cccc(F)c4)c3)c12 | 0.115 °C
57 | O=C(c1ccc(-c2ccc(Cl)cc2)o1)N(Cc1ccccn1)c1ccc(N2CCNCC2)cc1 [MK2-IN-1 hydrochloride] | 0.111 °C
58 | Cc1ccc2nc(NCCN)c3ncc(C)n3c2c1 | -0.16 °C
59 | CC(C)(C)c1cc(C=C(C#N)C#N)cc(C(C)(C)C)c1O [Tyrphostin 9] | 1.09 °C
60 | NCCC(O)(P(=O)(O)O)P(=O)(O)O [Pamidronate disodium salt] | 0.193 °C
61 | CC(C[N+](C)(C)C)OC(N)=O (stereo not given) [Bethanechol chloride] | -0.0596 °C
62 | O=C(O)c1nn(Cc2ccc(Cl)cc2Cl)c2ccccc12 [Lonidamine] | -0.016 °C
63 | Cc1c(C2=CCN(C(=O)N(C)C(C)C)CC2)nnn1-c1cccnc1F | -0.00376 °C
64 | Cc1cc(C(C#N)c2ccc(Cl)cc2)c(Cl)cc1NC(=O)c1cc(I)cc(I)c1O (stereo not given) [Closantel] | 1.07 °C
65 | Cc1cc(C(C#N)c2ccc(Cl)cc2)c(Cl)cc1NC(=O)c1cc(I)cc(I)c1O (stereo not given) [Closantel Sodium] | 1.01 °C
66 | CCCCCCCCCCOc1cc2c(O)c(C(=O)OCC)cnc2cc1OCC [Decoquinate] | 0.0875 °C

Row | SMILES | thermal shift ΔTm of Mpro
67 | COc1ccc2c(c1)C(=O)N(CCc1ccc(S(=O)(=O)NC(=O)NC3CCCCC3)cc1)C(=O)C2(C)C [Gliquidone] | 0.0529 °C
68 | C=CCc1ccc(O)c(-c2cc(CC=C)ccc2O)c1 [Magnolol] | 0.213 °C
69 | CC(=N)NCc1cccc(CN)c1 [1400W dihydrochloride] | 0.0491 °C
70 | NS(=O)(=O)Cc1noc2ccccc12 [Zonisamide] | 0.133 °C
71 | CN(C)CCN(Cc1ccc(Cl)cc1)c1ccccn1 [Chloropyramine hydrochloride] | 0.156 °C
72 | CC(=O)c1cc([N+](=O)[O-])c(Sc2ccc(F)cc2F)s1 | 0.0141 °C
73 | Cc1nn2c([nH]c(=O)c3cccnc32)c1C#N | 0.151 °C
74 | Cc1cn([C@H]2C[C@H](N=[N+]=[N-])[C@@H](CO)O2)c(=O)[nH]c1=O [Zidovudine] | 0.0052 °C
75 | COc1ccc([C@@H]2Sc3ccccc3N(CCN(C)C)C(=O)[C@@H]2OC(C)=O)cc1 [Diltiazem HCl] | 0.0578 °C
76 | O=C(NCCO)c1ccc(-c2cc(Nc3ccc(OC(F)(F)F)cc3)ncn2)cc1 [Multi-kinase inhibitor I] | -0.033 °C
77 | Cc1sc2c(c1C)C(c1ccc(Cl)cc1)=N[C@@H](CC(=O)OC(C)(C)C)c1nnc(C)n1-2 | -0.0889 °C
78 | Cc1c(Cc2ccc3ccccc3n2)c2cc(F)ccc2n1CC(=O)O [Timapiprant] | -0.0336 °C
79 | Cc1c(Cc2ccc3ccccc3n2)c2cc(F)ccc2n1CC(=O)O | -0.216 °C
80 | CO[C@@H](C(=O)N1Cc2[nH]nc(NC(=O)c3ccc(N4CCN(C)CC4)cc3)c2C1)c1ccccc1 | 0.229 °C
81 | CCN(CCO)CCCOc1ccc2c(Nc3cc(CC(=O)Nc4cccc(F)c4)[nH]n3)ncnc2c1 [Barasertib (AZD1152-HQPA)] | 0.0493 °C
82 | C=CC(=O)N1CCC(Oc2cc3c(Nc4ccc(Cl)c(Cl)c4F)ncnc3cc2OC)CC1 [Poziotinib (HM781-36B)] | -0.213 °C
83 | O=C(OC(C(F)(F)F)C(F)(F)F)N1CCC(C(O)(c2ccc3c(c2)OCO3)c2ccc3c(c2)OCO3)CC1 | 0.0776 °C
84 | O=C(Nc1cccc(-c2ccccc2)c1)OC1CCCCC1 | 0.00491 °C
85 | C=CN1CCCC1=O.II [Povidone-iodine] | 0.128 °C

Look-ups from above.
CN(Cc1ccc(C(C)(C)C)cc1)Cc1cccc2ccccc12 [Butenafine HCl] | thermal shift ΔTm of Mpro: 0.0278 °C
Nc1ccncc1N [Amifampridine] | thermal shift ΔTm of Mpro: 0.305 °C
COc1ccc2c(c1)C(=O)N(CCc1ccc(S(=O)(=O)NC(=O)NC3CCCCC3)cc1)C(=O)C2(C)C [Gliquidone] | thermal shift ΔTm of Mpro: 0.0529 °C
COc1cc(C(=O)NC2CCN(C)CC2)ccc1Nc1ncc2c(n1)N(C1CCCC1)CC(F)(F)C(=O)N2C | thermal shift ΔTm of Mpro: -0.0889 °C

2 entries from above, with tabs.
Row	SMILES	thermal shift ΔTm of Mpro
72	CC(=O)c1cc([N+](=O)[O-])c(Sc2ccc(F)cc2F)s1	0.0141 °C
76	O=C(NCCO)c1ccc(-c2cc(Nc3ccc(OC(F)(F)F)cc3)ncn2)cc1 [Multi-kinase inhibitor I]	-0.033 °C
